Results from publication doi:10.1101/2022.01.28.478199.

Amino acid sequences for entries named in this document (tags omitted). A change or cut given only in a name is not applied to a line headed by its entry. Residues count along the entry.
UniProt P33416, residues 45-811: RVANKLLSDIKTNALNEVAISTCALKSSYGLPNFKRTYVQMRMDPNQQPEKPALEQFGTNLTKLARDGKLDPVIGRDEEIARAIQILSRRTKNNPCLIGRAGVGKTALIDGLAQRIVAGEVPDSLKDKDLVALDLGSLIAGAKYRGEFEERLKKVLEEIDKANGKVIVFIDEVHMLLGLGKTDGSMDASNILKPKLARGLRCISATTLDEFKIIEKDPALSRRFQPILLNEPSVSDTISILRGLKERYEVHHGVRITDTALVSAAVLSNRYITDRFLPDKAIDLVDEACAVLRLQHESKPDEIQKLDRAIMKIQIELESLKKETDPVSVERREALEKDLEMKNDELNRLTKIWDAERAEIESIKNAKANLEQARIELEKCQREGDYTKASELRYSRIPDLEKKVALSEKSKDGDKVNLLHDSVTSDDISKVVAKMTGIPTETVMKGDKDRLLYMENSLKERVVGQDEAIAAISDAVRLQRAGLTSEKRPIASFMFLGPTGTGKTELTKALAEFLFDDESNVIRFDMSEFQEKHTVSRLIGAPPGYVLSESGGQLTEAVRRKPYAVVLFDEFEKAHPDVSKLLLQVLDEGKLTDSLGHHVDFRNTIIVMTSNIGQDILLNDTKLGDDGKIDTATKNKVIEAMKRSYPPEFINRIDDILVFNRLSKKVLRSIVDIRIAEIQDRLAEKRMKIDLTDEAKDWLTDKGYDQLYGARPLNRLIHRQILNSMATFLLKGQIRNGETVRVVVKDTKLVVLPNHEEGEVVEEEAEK
UniProt P19882, residues 26-572: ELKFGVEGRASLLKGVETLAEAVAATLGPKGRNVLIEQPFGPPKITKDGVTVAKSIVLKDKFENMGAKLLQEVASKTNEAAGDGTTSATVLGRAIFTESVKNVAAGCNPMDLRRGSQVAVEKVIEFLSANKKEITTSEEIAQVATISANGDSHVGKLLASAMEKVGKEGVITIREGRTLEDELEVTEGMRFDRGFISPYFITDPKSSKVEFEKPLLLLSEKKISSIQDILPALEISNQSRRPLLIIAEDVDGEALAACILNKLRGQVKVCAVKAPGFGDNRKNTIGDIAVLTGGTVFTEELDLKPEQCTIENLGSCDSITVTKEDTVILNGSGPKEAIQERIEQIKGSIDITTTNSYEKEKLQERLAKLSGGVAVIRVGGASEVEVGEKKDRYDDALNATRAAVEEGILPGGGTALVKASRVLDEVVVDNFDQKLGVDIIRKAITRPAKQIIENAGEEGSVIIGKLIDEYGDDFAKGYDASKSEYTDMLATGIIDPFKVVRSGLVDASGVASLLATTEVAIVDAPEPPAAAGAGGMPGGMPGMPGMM
UniProt P0CS90, residues 24-654: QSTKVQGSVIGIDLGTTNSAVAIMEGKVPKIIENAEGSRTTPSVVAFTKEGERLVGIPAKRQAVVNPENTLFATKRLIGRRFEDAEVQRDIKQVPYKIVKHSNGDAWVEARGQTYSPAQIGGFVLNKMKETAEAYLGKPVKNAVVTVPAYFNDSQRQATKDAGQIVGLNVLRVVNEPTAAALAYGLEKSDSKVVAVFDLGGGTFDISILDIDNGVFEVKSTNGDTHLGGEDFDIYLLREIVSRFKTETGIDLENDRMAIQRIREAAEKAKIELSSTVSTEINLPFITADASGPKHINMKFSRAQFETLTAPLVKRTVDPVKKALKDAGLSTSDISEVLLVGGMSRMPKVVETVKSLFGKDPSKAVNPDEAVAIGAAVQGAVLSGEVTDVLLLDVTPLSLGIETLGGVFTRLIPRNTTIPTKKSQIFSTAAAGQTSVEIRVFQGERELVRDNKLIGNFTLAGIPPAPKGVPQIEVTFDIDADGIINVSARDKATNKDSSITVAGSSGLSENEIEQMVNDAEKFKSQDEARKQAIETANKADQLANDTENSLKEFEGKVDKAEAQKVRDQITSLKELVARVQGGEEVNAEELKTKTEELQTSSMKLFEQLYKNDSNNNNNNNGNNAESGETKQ
UniProt P09950, residues 23-548: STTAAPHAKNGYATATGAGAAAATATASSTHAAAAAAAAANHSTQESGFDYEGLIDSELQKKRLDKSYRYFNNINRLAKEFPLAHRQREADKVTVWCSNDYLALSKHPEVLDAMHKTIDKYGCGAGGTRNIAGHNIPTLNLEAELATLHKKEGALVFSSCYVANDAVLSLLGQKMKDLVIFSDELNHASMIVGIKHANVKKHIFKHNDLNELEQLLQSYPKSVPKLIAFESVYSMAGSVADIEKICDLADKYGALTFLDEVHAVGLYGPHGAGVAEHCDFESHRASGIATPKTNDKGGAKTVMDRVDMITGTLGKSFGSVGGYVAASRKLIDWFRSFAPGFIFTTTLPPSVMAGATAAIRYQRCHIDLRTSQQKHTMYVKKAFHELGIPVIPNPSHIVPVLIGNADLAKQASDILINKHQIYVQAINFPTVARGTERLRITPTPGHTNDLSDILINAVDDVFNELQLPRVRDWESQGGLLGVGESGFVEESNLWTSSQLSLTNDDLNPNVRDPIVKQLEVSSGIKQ

What was measured:
[1] = target: Hsp78TR-6xHis (Hsp78 E216Q/E614Q Walker B mutant with a C-terminal 6x polyhistidine-tag) (S. cerevisiae) (UniProt P33416); test: affinity purification with mass spectrometry
[2] = target: Hsp78-6xHis (wild-type Hsp78 with a C-terminal 6x polyhistidine-tag) (S. cerevisiae) (UniProt P33416); test: affinity purification with mass spectrometry

binding [1] | binding [2] | Substance
binds |  | Hsp60 (from UniProt P19882 26-572)
binds | binds | Ssc1 (mtHsp70, main Hsp70 chaperone of the mitochondrial matrix) (from UniProt P0CS90 24-654)
binds |  | Hem1 (5-aminolevulinate synthase) (from UniProt P09950 23-548)

These are yes or no findings as the source states them, for the method shown. Binding seen in cells or lysates may run through a third protein. These calls come from enrichment with a bait or labelling near it, and not all partners need be listed.
